The values below come from publication PMC6207756.

Chains of the proteins cited; added tags and fusions are not shown. Residues count along the entry.
UniProt P0CG63, residues 1-74: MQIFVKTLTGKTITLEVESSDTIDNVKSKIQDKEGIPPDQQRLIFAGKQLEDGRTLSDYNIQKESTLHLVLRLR

The target in the assay is Strep-Ub-alkyne (S. cerevisiae) (UniProt P0CG63). The assay is described as follows: pull-down; magnetic Strep-Tactin XT beads coupled with purified Strep-Ub-alkyne (4.6 µg), H6-PEX5-Ub-Strep (14 µg) or H6-BRD4-GFP-Strep (14 µg); 35S-labelled in vitro translation products added in buffer C with 2 mM ATP and 4 mM MgCl2; eluted with 50 mM biotin; autoradiography; only the target purified.

These are yes or no findings as the source states them, for the method shown. Binding seen in cells or lysates may run through a third protein. Some results given as binding are weak or reduced against the parent protein; the word gives no strength.

B1: ^35S-PEX1 (enzyme, UniProt O43933 1-1283)
chain: MWGSDRLAGAGGGGAAVTVAFTNARDCFLHLPRRLVAQLHLLQNQAIEVVWSHQPAFLSWVEGRHFSDQGENVAEINRQVGQKLGLSNGGQVFLKPCSHVVSCQQVEVEPLSADDWEILELHAVSLEQHLLDQIRIVFPKAIFPVWVDQQTYIFIQIVALIPAASYGRLETDTKLLIQPKTRRAKENTFSKADAEYKKLHSYGRDQKGMMKELQTKQLQSNTVGITESNENESEIPVDSSSVASLWTMIGSIFSFQSEKKQETSWGLTEINAFKNMQSKVVPLDNIFRVCKSQPPSIYNASATSVFHKHCAIHVFPWDQEYFDVEPSFTVTYGKLVKLLSPKQQQSKTKQNVLSPEKEKQMSEPLDQKKIRSDHNEEDEKACVLQVVWNGLEELNNAIKYTKNVEVLHLGKVWIPDDLRKRLNIEMHAVVRITPVEVTPKIPRSLKLQPRENLPKDISEEDIKTVFYSWLQQSTTTMLPLVISEEEFIKLETKDGLKEFSLSIVHSWEKEKDKNIFLLSPNLLQKTTIQVLLDPMVKEENSEEIDFILPFLKLSSLGGVNSLGVSSLEHITHSLLGRPLSRQLMSLVAGLRNGALLLTGGKGSGKSTLAKAICKEAFDKLDAHVERVDCKALRGKRLENIQKTLEVAFSEAVWMQPSVVLLDDLDLIAGLPAVPEHEHSPDAVQSQRLAHALNDMIKEFISMGSLVALIATSQSQQSLHPLLVSAQGVHIFQCVQHIQPPNQEQRCEILCNVIKNKLDCDINKFTDLDLQHVAKETGGFVARDFTVLVDRAIHSRLSRQSISTREKLVLTTLDFQKALRGFLPASLRSVNLHKPRDLGWDKIGGLHEVRQILMDTIQLPAKYPELFANLPIRQRTGILLYGPPGTGKTLLAGVIARESRMNFISVKGPELLSKYIGASEQAVRDIFIRAQAAKPCILFFDEFESIAPRRGHDNTGVTDRVVNQLLTQLDGVEGLQGVYVLAATSRPDLIDPALLRPGRLDKCVYCPPPDQVSRLEILNVLSDSLPLADDVDLQHVASVTDSFTGADLKALLYNAQLEALHGMLLSSGLQDGSSSSDSDLSLSSMVFLNHSSGSDDSAGDGECGLDQSLVSLEMSEILPDESKFNMYRLYFGSSYESELGNGTSSDLSSQCLSAPSSMTQDLPGVPGKDQLFSQPPVLRTASQEGCQELTQEQRDQLRADISIIKGRYRSQSGEDESMNQPGPIKTRLAISQSHLMTALGHTRPSISEDDWKNFAELYESFQNPKRRKNQSGTMFRPGQKVTLA
With B1, the binding result is on record as “binds weakly”.

B2: ^35S-PEX6 (enzyme, UniProt Q13608 1-980)
chain: MALAVLRVLEPFPTETPPLAVLLPPGGPWPAAELGLVLALRPAGESPAGPALLVAALEGPDAGTEEQGPGPPQLLVSRALLRLLALGSGAWVRARAVRRPPALGWALLGTSLGPGLGPRVGPLLVRRGETLPVPGPRVLETRPALQGLLGPGTRLAVTELRGRARLCPESGDSSRPPPPPVVSSFAVSGTVRRLQGVLGGTGDSLGVSRSCLRGLGLFQGEWVWVAQARESSNTSQPHLARVQVLEPRWDLSDRLGPGSGPLGEPLADGLALVPATLAFNLGCDPLEMGELRIQRYLEGSIAPEDKGSCSLLPGPPFARELHIEIVSSPHYSTNGNYDGVLYRHFQIPRVVQEGDVLCVPTIGQVEILEGSPEKLPRWREMFFKVKKTVGEAPDGPASAYLADTTHTSLYMVGSTLSPVPWLPSEESTLWSSLSPPGLEALVSELCAVLKPRLQPGGALLTGTSSVLLRGPPGCGKTTVVAAACSHLGLHLLKVPCSSLCAESSGAVETKLQAIFSRARRCRPAVLLLTAVDLLGRDRDGLGEDARVMAVLRHLLLNEDPLNSCPPLMVVATTSRAQDLPADVQTAFPHELEVPALSEGQRLSILRALTAHLPLGQEVNLAQLARRCAGFVVGDLYALLTHSSRAACTRIKNSGLAGGLTEEDEGELCAAGFPLLAEDFGQALEQLQTAHSQAVGAPKIPSVSWHDVGGLQEVKKEILETIQLPLEHPELLSLGLRRSGLLLHGPPGTGKTLLAKAVATECSLTFLSVKGPELINMYVGQSEENVREVFARARAAAPCIIFFDELDSLAPSRGRSGDSGGVMDRVVSQLLAELDGLHSTQDVFVIGATNRPDLLDPALLRPGRFDKLVFVGANEDRASQLRVLSAITRKFKLEPSVSLVNVLDCCPPQLTGADLYSLCSDAMTAALKRRVHDLEEGLEPGSSALMLTMEDLLQAAARLQPSVSEQELLRYKRIQRKFAAC
In the case of B2, the binding entry is reported as “binds weakly”.
